In the assay the target is FLAG-tagged human Ndufaf2 (human). Nature of the assay: co-IP; HEK293 cells co-transfected with FLAG-Ndufaf2 and tGFP-tagged MSR for 24 h; IP lysis buffer (25 mM Tris pH 7.4, 150 mM NaCl, 1 mM EDTA, 1% NP-40, 5% glycerol); anti-FLAG antibody and protein A Dynabeads at room temperature; blot with anti-tGFP.

Results are given in words; binding and its absence hold for the method and conditions named. In cells and extracts the contact can be indirect. Binding can be weak; no strength is given. Tags and fused reporters may be left off the sequences shown.

B1: human MSRB3 tagged with turboGFP (enzyme, UniProt Q8IXL7 33-192)
chain: GSCRDKKNCKVVFSQQELRKRLTPLQYHVTQEKGTESAFEGEYTHHKDPGIYKCVVCGTPLFKSETKFDSGSGWPSFHDVINSEAITFTDDFSYGMHRVETSCSQCGAHLGHIFDDGPRPTGKRYCINSAALSFTPADSSGTAEGGSGVASPAQADKAEL
On to B1, for which the binding result was “binds”.

Values taken from article PMC9904299.
